The term AC50 denotes the concentration giving half of the maximal activity seen. Low values mean greater potency, high ones weaker potency.

The record followed here is PubChem BioAssay AID2685 (National Center for Advancing Translational Sciences (NCATS), 2010).

The list shows a part of the results. These are further read-outs of the screen, such as a control signal, another cell line or another target. No call is given for them. The list favours compounds with an active or inconclusive main result. Words in brackets tell the shape of the fitted curve; partial curves, single points and poor fits give uncertain potencies.

The nature of the assay: qHTS Assay for Lipid Storage Modulators in Drosophila S3 Cells.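 As to cell number change: cells counted by Cell Tracker Red CMTPX staining in the red channel.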 Conditions: BODIPY lipid droplet fluorescence, 18-24 h; for cell number change: measured here: cell count max response, cells fed with added oleic acid. In short, it runs like this:
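Drosophila S3 cells got compounds at several concentrations plus oleic acid (400 uM solution). Laser-scanning cytometry with 488 nm excitation read lipid droplets at 500-530 nm and cells at 575-640 nm. Percent activity was relative to 20 uM Triacsin C.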
Background: qHTS replaces the single test concentration by a dilution series.

Where [1] appears, read: measured here: lipid fluorescence (Fed channel) AC50, cells fed with added oleic acid.
Setting [2] is: measured here: cell number channel AC50, cells fed with added oleic acid.

In the case of `COCCNC(=O)Cc1cn(C)c2ccccc12`, the cell number change is -9.99%. Moreover, the concentration at half-maximal activity (AC50) under setting [1] is 0.411 µM [falling, single point].
Take `Fc1ccccc1Cc1nnc2n1N=C(c1ccc(Cl)cc1)CS2`: the cell number change stood at 150%. The concentration at half-maximal activity (AC50) under setting [2] is 5.8 µM [rising, full curve].
On to `c1ccc2c(c1)oc1c(N3CCOCC3)ncnc12`, for which the cell number change was -2.56%. For the same compound, the AC50 under setting [1] was 29.1 µM [rising, single point].
As for `CCOc1cccc2sc(N(CCCN(C)C)C(=O)Cc3ccccc3)nc12`, the cell number change came to 22%. Under setting [2], the AC50 is 0.00517 µM [falling, full curve, poor fit]. For the same compound, the AC50 under setting [1] was 29.1 µM [rising, single point].
Regarding `CCc1ccc(-n2c(CSc3nnnn3-c3ccccc3)nc3ccccc3c2=O)cc1`, the cell number change came out at 70.2%. Besides, under setting [2], the AC50 is 1.46 µM [rising, full curve]. Also, the AC50 under setting [1] is 0.731 µM [rising, partial curve, poor fit].
As to `COc1cc(CNC(=O)c2ccc3oc(C(C)C)nc3c2)cc(OC)c1`, the cell number change was -58.8%. The concentration at half-maximal activity (AC50) under setting [2] is 16.4 µM [falling, single point]. The AC50 under setting [1] is 20.6 µM [falling, single point].
As to `COc1ccc(N(C)S(=O)(=O)c2ccc(Cl)c(C(=O)NCC(C)(C)N3CCOCC3)c2)cc1`, the cell number change was 22.5%. The concentration at half-maximal activity (AC50) under setting [1] was 8.2 µM [falling, partial curve].
On to `O=C(CCc1nnc2ccc(NCc3ccco3)nn12)Nc1ccc(F)cc1F`, for which the cell number change is -23.3%.
As to `CC(Sc1nncn1C)C(=O)Nc1ccc2ccccc2c1` (stereo not given), under setting [1], the concentration at half-maximal activity (AC50) is 8.2 µM [falling, partial curve].
`NC(=O)/C(=C\c1ccncc1)c1cccc2ccccc12`: the cell number change came out at 6.04%. For the same compound, the half-maximal activity concentration (AC50) under setting [1] is 0.0259 µM [rising, full curve, poor fit].
As for `COCCNC(=O)/C(C#N)=C/c1cc(Br)c(O)c(OC)c1`, the cell number change is 35.4%.
On the same count and under the same terms, for `Cc1ccc(C(=O)COC(=O)C2CC(=O)N(c3nc(-c4ccccc4)cs3)C2)cc1C` (stereo not given) the value was 21.9%.
Take `COc1ccc(N(CC(=O)Nc2cc(Cl)ccc2OC)S(=O)(=O)c2c(C)[nH]c(=O)[nH]c2=O)cc1`: the cell number change was -30.5%. Also, the half-maximal activity concentration (AC50) under setting [2] was 0.58 µM [falling, partial curve, poor fit].
With `CC1=NN(c2ccccc2)C(=O)/C1=C\C=C1\N(C)c2ccccc2C1(C)C`, the cell number change was -69.3%. The AC50 under setting [2] is 5.8 µM [falling, full curve]. For the same compound, the AC50 under setting [1] was 2.91 µM [falling, full curve].
Turning to `CCNC(=O)/C(C#N)=C/c1c(N2CCCCCC2)nc2ccccn2c1=O`, the cell number change was 11.3%.
For `O=C(NC(=O)c1cc(OCC(F)(F)F)ccc1OCC(F)(F)F)Nc1ccccc1`, the cell number change stood at 12.3%. For the same compound, the concentration at half-maximal activity (AC50) under setting [1] was 4.11 µM [rising, partial curve, poor fit].
In the case of `COc1ccc(CCNC(=O)Cc2ccccc2)cc1OC`, the cell number change was -1.47%. In addition, under setting [1], the concentration at half-maximal activity (AC50) is 2.91 µM [falling, single point].
Regarding `COC(=O)c1cc2oc3ccccc3c2n1Cc1ccccn1`, the cell number change worked out at 19.3%. In addition, the concentration at half-maximal activity (AC50) under setting [2] is 3.26 µM [rising, full curve, poor fit]. Also, the half-maximal activity concentration (AC50) under setting [1] is 7.31 µM [rising, single point].
Regarding `Cc1cccc(C)c1NC(=O)CN(C)C(=O)CC1Sc2ccccc2NC1=O` (stereo not given), the cell number change worked out at 39.1%. Under setting [2], the AC50 is 2.59 µM [rising, partial curve, poor fit]. Moreover, under setting [1], the AC50 is 2.59 µM [rising, partial curve].
On to `Cc1ccc(-c2nn3c(C)nnc3c3ccccc23)cc1S(=O)(=O)NC(C)(C)CO`, for which the cell number change is -29.6%. Further, under setting [1], the half-maximal activity concentration (AC50) was 18.4 µM [falling, single point].
Turning to `COC(=O)c1sccc1NC(=O)C1CC2CCC1C2` (stereo not given), the cell number change is -27.4%.
In the case of `Cc1c(C(=O)Nc2ccc(C(=O)Nc3ccccc3)cc2)cccc1[N+](=O)[O-]`, the cell number change is 51.7%. Also, under setting [2], the AC50 is 14.6 µM [rising, partial curve].
As for `CO/N=C/c1ccc(Sc2ccccc2N)c([N+](=O)[O-])c1`, the cell number change was -18%. In addition, under setting [1], the AC50 is 7.31 µM [rising, partial curve].
`O=C(NC(=Nc1nc2ccccc2o1)NC(=O)c1ccccc1)c1ccccc1`: the cell number change was determined as 10.3%. Also, the concentration at half-maximal activity (AC50) under setting [1] was 0.259 µM [rising, full curve, poor fit].
On to `CNC(=O)c1c(NC(=O)CCS(=O)(=O)c2ccccc2)sc(C)c1C`, for which the cell number change was determined as 30.2%. Moreover, the half-maximal activity concentration (AC50) under setting [2] is 6.51 µM [rising, partial curve, poor fit]. Also, under setting [1], the concentration at half-maximal activity (AC50) was 3.66 µM [rising, full curve].
Take `COc1ccccc1CN1CC(C(=O)NCCCc2ccc(F)cc2)CCC1=O` (stereo not given): the cell number change was -15.2%. Further, the half-maximal activity concentration (AC50) under setting [1] is 18.4 µM [falling, single point].
As for `Cc1cccc(C)c1OCC(=O)N/N=C/c1cc2c(cc1[N+](=O)[O-])OCO2`, the cell number change was 6.42%. Further, the AC50 under setting [1] is 1.16 µM [rising, full curve, poor fit].
Regarding `CNC(=O)OCc1cccc(COC(=O)NC)n1`, the cell number change is -1.79%. The half-maximal activity concentration (AC50) under setting [1] was 6.51 µM [falling, single point].
With `COc1cc(/C=N/O)c(Br)cc1OCC(=O)Nc1ccccc1C`, the cell number change worked out at 8.31%.
For the compound `O=C(Nc1ccccc1N1CCCC1)c1ccco1`, the cell number change worked out at 8.74%. For the same compound, under setting [1], the AC50 was 25.9 µM [rising, single point].
Consider `CC(OC(=O)c1ccc(Cl)nc1)C(=O)N1CCc2ccccc21` (stereo not given), for which the cell number change was -33.2%. Also, the concentration at half-maximal activity (AC50) under setting [2] was 0.146 µM [falling, full curve, poor fit]. In addition, the AC50 under setting [1] is 1.46 µM [falling, full curve, poor fit].
For the compound `O=C(COc1cccc2ccccc12)NNC(=O)[C@@H]1CCCC[C@@H]1C(=O)O`, the cell number change was 36.7%. Under setting [2], the concentration at half-maximal activity (AC50) is 29.1 µM [rising, single point]. Also, under setting [1], the half-maximal activity concentration (AC50) was 6.51 µM [rising, single point].
As to `CC1CCCN(C(=O)C2CCN(S(=O)(=O)c3cccc4nsnc34)CC2)C1` (stereo not given), the cell number change was found to be 22.6%. Moreover, the AC50 under setting [1] is 3.26 µM [falling, single point].
Take `CCOC(=O)CNC(=O)CNC(=O)Cn1ccc2ccccc2c1=O`: the cell number change is -79.9%. For the same compound, the AC50 under setting [2] is 18.4 µM [falling, partial curve, poor fit]. The half-maximal activity concentration (AC50) under setting [1] is 1.16 µM [falling, full curve, poor fit].
For `Cc1ccc(C(C(=O)NC2CCCCC2)N(Cc2ccco2)C(=O)Cn2cnc3ccccc32)cc1` (stereo not given), the cell number change was -25.7%. The AC50 under setting [1] is 29.1 µM [falling, single point].
With `COC(=O)/C=C1\SC(N)=NC1=O`, the cell number change was -4.63%. For the same compound, under setting [2], the AC50 is 6.51 µM [falling, single point].
As to `C=CCOc1ccc(/C=C/C(=O)OCC(=O)NCCc2ccccc2)cc1`, the cell number change is -31.6%. In addition, under setting [2], the AC50 is 29.1 µM [falling, single point].
`CCOc1ccc(C(=O)Nc2ccc(N3CCN(C)CC3)cc2)cc1[N+](=O)[O-]`: the concentration at half-maximal activity (AC50) under setting [1] is 0.206 µM [rising, full curve, poor fit].
`Cc1ccc(-c2csc3ncn(/N=C/N(C)C)c(=O)c23)o1`: the cell number change was 20.6%. Besides, the AC50 under setting [1] is 14.6 µM [rising, partial curve].
With `CN(C)C(=O)CSc1nnc(CCCCCNC(=O)OC(C)(C)C)o1`, the cell number change turned out to be 6.81%. For the same compound, the AC50 under setting [1] was 0.731 µM [falling, single point].
For the compound `COc1ccc(CNC(=O)CN(C(=O)CCC(=O)Nc2ccccn2)c2cc(C)ccc2C)cc1`, the cell number change amounted to 7.62%.
Consider `Cc1sc2ncn(CC(=O)N3CCN(c4ccccc4F)CC3)c(=O)c2c1S(=O)(=O)N1CCOCC1`, for which the cell number change was 20.8%. For the same compound, the AC50 under setting [1] was 0.58 µM [rising, single point].
Turning to `Cc1c(Cc2ccc3c(c2)OCO3)sc(NC(=O)c2cccc3ccccc23)c1C(N)=O`, the cell number change is 17.4%. Moreover, the AC50 under setting [1] is 0.461 µM [rising, full curve].
On to `CCCCCCOc1cccc(N)c1`, for which the cell number change came out at 8.66%. The half-maximal activity concentration (AC50) under setting [1] was 0.517 µM [falling, full curve, poor fit].
As to `CN1C(=O)N(CC(=O)Nc2ccc(C(F)(F)F)cc2)C(=O)C12CCCCC2`, the cell number change came to 9.64%.
As for `COc1ccccc1C(=O)NCCNC(=O)c1ccc(C)nc1`, the cell number change was found to be 24.4%. For the same compound, under setting [1], the concentration at half-maximal activity (AC50) is 29.1 µM [falling, single point].
`Cc1ccc(S(=O)(=O)CCC(=O)Nc2ccccc2N2CCCC2)cc1`: the cell number change was found to be 18.2%. The AC50 under setting [1] was 0.082 µM [rising, full curve, poor fit].
`CN(c1ccc(O)cc1)S(=O)(=O)c1ccc2ccccc2c1`: the cell number change was determined as 13.4%. Further, under setting [1], the concentration at half-maximal activity (AC50) is 29.1 µM [falling, single point].
As to `Cc1ccc(C=Nc2ccc(N(C)C)cc2)o1`, the cell number change was -17.9%. Further, the concentration at half-maximal activity (AC50) under setting [1] was 32.6 µM [falling, single point].
With `COc1ccc(Nc2cc(Nc3ccccc3)ncn2)cc1`, the cell number change was determined as 8.33%.
With `Cc1cc(C(C)(C)C)cc(S(=O)(=O)Nc2cccc(C(=O)O)c2)c1C`, the cell number change is -50.4%. Also, the AC50 under setting [2] was 29.1 µM [falling, single point].
As for `CCCCOc1ccc(-c2nnn(CCC(=O)N3CCOCC3)n2)cc1`, the cell number change was -8.52%.
Regarding `COc1cc2c(cc1OC)-c1cc(OCc3ccccc3Cl)nc(=O)n1CC2`, the cell number change was -8.56%. Also, the AC50 under setting [2] is 0.206 µM [rising, full curve, poor fit]. Besides, the half-maximal activity concentration (AC50) under setting [1] is 0.13 µM [rising, full curve, poor fit].
For `Cc1ccc2cc3c(nc2c1)N(Cc1ccco1)CC3`, the concentration at half-maximal activity (AC50) under setting [2] was 6.51 µM [rising, single point].
`Cc1noc(C)c1C(=O)Nc1nc2ccc(F)cc2s1`: the cell number change turned out to be 9.66%. The AC50 under setting [2] is 0.58 µM [rising, partial curve, poor fit]. Moreover, the AC50 under setting [1] was 2.59 µM [rising, single point].
With `COc1ccccc1CCNC(=O)c1cnccn1`, the cell number change was determined as 27.7%. Moreover, the AC50 under setting [2] is 2.31 µM [rising, full curve, poor fit]. Under setting [1], the half-maximal activity concentration (AC50) was 4.11 µM [rising, partial curve].
On to `O=C(NC(=S)N1CCCCC1CO)C12CC3CC(CC(C3)C1)C2` (stereo not given), for which the cell number change was -28.7%.
Turning to `Cc1ccc(CSc2nnc(C)c(=O)n2N)cc1`, the cell number change was determined as 21%. Moreover, the concentration at half-maximal activity (AC50) under setting [1] was 14.6 µM [rising, partial curve, poor fit].
Turning to `Cc1ccc(CNC(=O)COC(=O)c2cncc(Br)c2)cc1`, the cell number change was -20.1%. Besides, the AC50 under setting [2] is 0.00651 µM [falling, full curve, poor fit]. For the same compound, under setting [1], the half-maximal activity concentration (AC50) was 0.00517 µM [falling, full curve, poor fit].
Regarding `CN1CCN(C(=O)c2cccc(-c3cc(O)c4ncccc4c3)c2)CC1`, the cell number change was 16.8%. The AC50 under setting [1] was 20.6 µM [rising, single point].
